According to PubChem BioAssay AID504327 (National Center for Advancing Translational Sciences (NCATS), 2011):
The whole screen tested about 390,000 compounds, of which about 820 (0.21%) were called active. Inconclusive means that the source gave no clear call. Such entries were picked first, then a sample of the others. Calls follow the shape of the dose curve; as a rule, active = well fitted inhibition curve with a large enough effect; inconclusive = small, poorly fitted or top-dose-only effect, or another doubt; inactive = no such curve, though single readings can be large or run the other way. A potency beside an inconclusive call is a rough fit, not a confirmed value. The source holds several records for some structures; these can differ, active in one and inactive in another.
Potency is read from the fitted curve at half-maximal effect.

Amino acid sequences for entries named in this document (tags omitted).
UniProt Q92830, whole entry, looked up: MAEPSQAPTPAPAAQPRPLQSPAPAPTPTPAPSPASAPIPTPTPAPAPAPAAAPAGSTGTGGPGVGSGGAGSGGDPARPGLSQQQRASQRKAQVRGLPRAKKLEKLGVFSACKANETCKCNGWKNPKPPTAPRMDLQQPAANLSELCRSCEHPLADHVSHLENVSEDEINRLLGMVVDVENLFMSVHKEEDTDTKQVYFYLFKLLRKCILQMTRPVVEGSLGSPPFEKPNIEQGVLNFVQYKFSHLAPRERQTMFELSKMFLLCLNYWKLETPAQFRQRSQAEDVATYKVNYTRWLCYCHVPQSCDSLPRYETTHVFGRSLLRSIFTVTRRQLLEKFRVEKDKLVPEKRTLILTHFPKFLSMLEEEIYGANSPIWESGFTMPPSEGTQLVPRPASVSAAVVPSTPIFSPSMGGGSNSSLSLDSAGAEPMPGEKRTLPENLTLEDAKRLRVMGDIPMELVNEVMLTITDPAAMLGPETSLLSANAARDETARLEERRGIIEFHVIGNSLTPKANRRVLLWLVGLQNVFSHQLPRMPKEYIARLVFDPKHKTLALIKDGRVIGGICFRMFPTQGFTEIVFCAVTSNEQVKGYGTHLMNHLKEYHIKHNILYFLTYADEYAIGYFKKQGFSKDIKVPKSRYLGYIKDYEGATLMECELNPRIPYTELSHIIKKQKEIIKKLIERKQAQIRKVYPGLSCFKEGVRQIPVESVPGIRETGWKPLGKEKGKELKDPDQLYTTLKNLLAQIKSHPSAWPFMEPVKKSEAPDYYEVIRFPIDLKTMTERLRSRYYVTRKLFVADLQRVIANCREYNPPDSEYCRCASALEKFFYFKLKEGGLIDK

Each compound was assayed against Histone acetyltransferase KAT2A (Homo sapiens) (UniProt Q92830) (assay: qHTS Assay for Inhibitors of GCN5L2). Conditions: GCN5L2 HAT assay, ThioGlo1 CoA-SH fluorescence; series mostly up to 58.9 µM.
Procedure, shortened: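 GCN5L2 (20 nM) in 50mM HEPES pH 7.5, 0.1mM EDTA, 0.01% Tween-20 preincubated 15 min with compounds at room temperature. Reaction started with H3(1-25) 75uM, acetyl-CoA 70uM, ThioGlo1 50uM; CoA-thiol fluorescence (Ex340/Em540) read at 0 and 20 min.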
With `COc1ccc2oc(=N)c(C(=O)Nc3ccccc3Cl)cc2c1` the Potency was “inactive”.
`O=C(COc1ccccc1Cl)Nc1cc(NC(=O)COc2ccccc2Cl)cc(C(=O)O)c1` was tested, and the Potency was inconclusive: 5.01 µM [inhibitor, single point].
`Cc1c(-c2cccc(NC(=O)c3cccs3)c2)nc2ncccn12` was tested, and the Potency was inconclusive: 28.2 µM [inhibitor, single point].
For `Cc1nnc(N/N=C/c2ccccc2O)n1N`, the Potency was inconclusive: 31.6 µM [inhibitor, single point].
In the case of `O=C(NCCCn1ccnc1)c1ccc(S(=O)(=O)N2CCCCCC2)cc1`, the Potency is reported as inconclusive: 20 µM [inhibitor, partial curve].
With `COc1ccc(/C(C)=N/NC(=O)c2ccncc2)cc1[N+](=O)[O-]` the Potency was “inactive”.
In the case of `CCC1(CC)NC(=O)N(CC(=O)OC(C)C(=O)Nc2ccc(Cl)cn2)C1=O` (stereo not given), the Potency is reported as inconclusive: 0.708 µM [inhibitor, full curve, poor fit].
`Cc1ccc(C)c(S(=O)(=O)N2CCN(C(=O)/C=C/c3ccco3)CC2)c1` was tested, and the Potency was inconclusive: 28.2 µM [inhibitor, partial curve].
In the case of `O=C(CSc1ccc(-c2ccc(Br)cc2)nn1)NC1CCCC1`, the Potency is reported as inconclusive: 2 µM [inhibitor, partial curve].
With `Oc1c(Br)cc(Br)c(/C=N/n2c(-c3ccccc3)n[nH]c2=S)c1Br` the Potency was active: 28.2 µM.
`Nc1ccc2c(c1)C/C(=C/c1ccco1)C2=O` was tested, and the Potency was inconclusive: 31.6 µM [inhibitor, single point].
With `CCOc1ccc(-n2c(N)c(C(=O)NCc3ccco3)sc2=S)cc1` the Potency was inconclusive: 0.794 µM [inhibitor, single point].
With `CC1=NN(C(C#N)c2ccccc2)C(C)(C)C1` (stereo not given) the Potency was inconclusive: 39.8 µM [inhibitor, single point].
For `O=C(c1ccc(Cl)cc1[N+](=O)[O-])N1CCc2ccccc2C1`, the Potency was inconclusive: 8.91 µM [inhibitor, single point].
In the case of `CCOc1cc(N2CCOCC2)c(OCC)cc1NC(=O)C(C)Oc1ccccc1` (stereo not given), the Potency is reported as “inactive”.
For `C=CCn1c(N)c(C(=O)OC(C)CC)c2nc3ccccc3nc21` (stereo not given), the Potency was inconclusive: 25.1 µM [inhibitor, single point].
In the case of `Cn1sc(=O)c2cc(S(=O)(=O)NC3CC3)ccc21`, the Potency is reported as inconclusive: 35.5 µM [inhibitor, single point].
In the case of `COc1cccc(CC2(CO)CCCN(CC3=Cc4cc(Cl)ccc4OC3)C2)c1` (stereo not given), the Potency is reported as inconclusive: 12.6 µM [inhibitor, partial curve].
With `Cc1nc(SCC(=O)c2ccccc2)n[nH]1` the Potency was inconclusive: 39.8 µM [inhibitor, single point].
In the case of `c1ccc(-c2n[nH]c(-c3ccccn3)n2)nc1`, the Potency is reported as “inactive”.
`O=C(O)CN1C(=O)/C(=C/c2ccc(SCc3ccccc3)o2)SC1=S` was tested, and the Potency was inconclusive: 39.8 µM [inhibitor, single point].
With `COc1ccc(-n2c(SCc3ccccc3F)nc3c([nH]c4ccccc43)c2=O)cc1OC` the Potency was “inactive”.
With `O=C(c1cc(COc2ccc(F)cc2Cl)on1)N1CCC(OCc2cccnc2)CC1` the Potency was “inactive”.
In the case of `Cc1ccc(C)c(S(=O)(=O)N2CCN(C(=O)c3cc(S(=O)(=O)NCc4ccccc4)ccc3C)CC2)c1`, the Potency is reported as inconclusive: 39.8 µM [inhibitor, single point].
`COc1ccc(Cl)cc1Nc1nc(-c2sc(NC(=O)c3ccco3)nc2C)cs1` was tested, and the Potency was “inactive”.
`COc1ccc(C2c3c(oc4ccccc4c3=O)C(=O)N2Cc2ccncc2)cc1` (stereo not given) was tested, and the Potency was inconclusive: 0.794 µM [inhibitor, single point].
For `Cc1cccc(NC(=O)CNC(=O)CNC(=O)Cc2ccccc2)c1`, the Potency was inconclusive: 3.55 µM [inhibitor, partial curve, poor fit].
In the case of `CCOC(=O)c1[nH]c2c(c1Cc1ccccc1OC)C(=O)CC(c1ccccc1)C2` (stereo not given), the Potency is reported as inconclusive: 8.91 µM [inhibitor, partial curve].
`O=C(Nc1ccc(Cl)cc1N1CCOCC1)C1CCCO1` (stereo not given) was tested, and the Potency was inconclusive: 6.31 µM [inhibitor, full curve, poor fit].
`CCc1cc2c(CN3CCN(C)CC3)cc(=O)oc2cc1O` was tested, and the Potency was inconclusive: 39.8 µM [inhibitor, single point].
In the case of `Cc1sc2nc(C3CC3)nc(SCC(=O)N3c4ccccc4CC3C)c2c1C` (stereo not given), the Potency is reported as “inactive”.
With `CNC(=S)N/N=C/c1c(C)nn(-c2ccccc2)c1Cl` the Potency was inconclusive: 14.1 µM [inhibitor, partial curve].
`FC(F)(F)c1ccc2c(c1)n(Cc1ccccc1)c1[n+]2CCCCC1` was tested, and the Potency was inconclusive: 39.8 µM [inhibitor, single point].
In the case of `COc1ccc(OC)c(S(=O)(=O)Nc2c(F)cccc2F)c1`, the Potency is reported as “inactive”.
`Cn1nnnc1Sc1ncnc2scc(-c3cccc(S(C)(=O)=O)c3)c12` was tested, and the Potency was “inactive”.
In the case of `COC(=O)Cc1cc(=O)oc2cc(O)ccc12`, the Potency is reported as inconclusive: 28.2 µM [inhibitor, partial curve].
In the case of `CCOC(=O)CN(C(=O)c1snc(C(N)=O)c1N)C(C(=O)NC1CCCCC1)c1ccc(F)cc1` (stereo not given), the Potency is reported as “inactive”.
With `CCn1cc(CNC(=O)C2C3CCC(C3)C2C(=O)O)cn1` (stereo not given) the Potency was inconclusive: 39.8 µM [inhibitor, single point].
`O=C(NCCN1CCCC1=O)C1CCC(=O)N(CCc2cccc(F)c2)C1` (stereo not given) was tested, and the Potency was inconclusive: 5.62 µM [inhibitor, full curve, poor fit].
In the case of `COc1cc2ccc(=O)oc2cc1O`, the Potency is reported as active: 31.6 µM.
With `CCOc1cc(/C=C2\SC(=N)N(c3nonc3N)C2=O)ccc1OCCN1CCOCC1` the Potency was “inactive”.
With `CCOC(=O)C1(C)C=C(Nc2ccc(OC)cc2)C(=O)N1c1ccc(OC)cc1` (stereo not given) the Potency was “inactive”.
`O=c1c(-c2ccc(F)cc2)nc2cnc(N3CCNCC3)nc2n1-c1ccccc1` was tested, and the Potency was inconclusive: 10 µM [inhibitor, full curve, poor fit].
In the case of `Cc1cccc(CNc2cc(-c3ccc(C(=O)N(C)C)cc3)ncn2)c1`, the Potency is reported as “inactive”.
With `C/C(=N/NC(=O)c1cc2ccccc2cc1O)c1ccco1` the Potency was inconclusive: 35.5 µM [inhibitor, partial curve].
For `CCOC(=O)c1cc2c(=O)n3ccccc3nc2n(CCCOC)c1=NC(=O)C(C)(C)C`, the Potency was inconclusive: 15.8 µM [inhibitor, partial curve].
In the case of `CC1(c2ccc3noc(-c4ccccc4)c3c2)OCCO1`, the Potency is reported as inconclusive: 31.6 µM [inhibitor, single point].
For `Cc1nn(-c2ccccc2)c2c1C(c1ccccc1)C(C#N)=C(N)O2` (stereo not given), the Potency was “inactive”.
In the case of `NC(=O)C1CCN(c2oc(-c3ccccc3)nc2S(=O)(=O)c2ccc(Br)cc2)CC1`, the Potency is reported as inconclusive: 8.91 µM [inhibitor, full curve, poor fit].
`COc1cc(/C=N/Nc2nn3cnnc3c3ccccc23)ccc1O` was tested, and the Potency was inconclusive: 0.631 µM [inhibitor, partial curve].
For `Cn1c(N)c(C(=O)CSc2nnc(C3CC3)n2Cc2ccccc2)c(=O)[nH]c1=O`, the Potency was inconclusive: 35.5 µM [inhibitor, single point].
With `O=C(Cc1cccs1)Nc1ccc(-c2nc3ccccc3[nH]2)cc1` the Potency was inconclusive: 0.891 µM [inhibitor, partial curve, poor fit].
`COC(=O)CC1C(C)(C)C(=O)C2CC3C4=CC(=O)OC(c5ccoc5)[C@]4(C)CCC3[C@@]1(C)C2=O` (stereo not given in full) was tested, and the Potency was “inactive”.
In the case of `O=C(O)c1ccc(N/N=C/c2cn(Cc3ccccc3F)c3ccccc23)cc1`, the Potency is reported as inconclusive: 39.8 µM [inhibitor, single point].
For `CC(Oc1ccc(Cl)cc1)c1ccc(C#N)c(=O)[nH]1` (stereo not given), the Potency was “inactive”.
`CCOC(=O)c1ccc(NC(=O)C(C)Sc2nc(=O)cc(N)n2CCc2ccccc2)cc1` (stereo not given) was tested, and the Potency was “inactive”.
`CC(C)c1ccc(NC(=S)N2CCCC2)cc1` was tested, and the Potency was inconclusive: 44.7 µM [inhibitor, partial curve, poor fit].
In the case of `CC(=O)Nc1ccc(NC(=O)CCS(=O)(=O)c2ccc3c(c2)oc(=O)n3C)cc1`, the Potency is reported as inconclusive: 0.708 µM [inhibitor, full curve, poor fit].
`Cc1ccc(NC(=O)CCC(=O)OCC(=O)c2ccc(Oc3ccc([N+](=O)[O-])cc3)cc2)cc1C` was tested, and the Potency was inconclusive: 1 µM [inhibitor, single point].
For `COc1ccc(C(=O)NCC(c2ccc3c(c2)OCO3)N2CCN(c3ccc(OC)cc3)CC2)cc1` (stereo not given), the Potency was inconclusive: 0.631 µM [inhibitor, full curve, poor fit].
For `CCOC(=O)C1=C(C)NC(C)=C(C(=O)OC)C1c1ccco1` (stereo not given), the Potency was inconclusive: 39.8 µM [inhibitor, single point].
`O=C(O)C1CCN(C(=O)c2ccccc2N2C(=O)[C@@H]3Cc4c([nH]c5ccccc45)C(c4cccc(Cl)c4)N3C2=O)CC1` (stereo not given in full) was tested, and the Potency was inconclusive: 0.631 µM [inhibitor, single point].
With `O=S(=O)(Cc1ccccc1)N1CCn2c(nc3ccccc32)C1` the Potency was inconclusive: 7.08 µM [inhibitor, single point].
`COc1ccccc1CNCc1ccc(C)cc1` was tested, and the Potency was “inactive”.
`Clc1ccccc1CN1CCN(/N=C/C=C\c2ccco2)CC1` was tested, and the Potency was “inactive”.
For `COc1ccc(-c2cc(=O)oc3cc(OC(=O)C4CCCCC4)c(Cl)cc23)cc1`, the Potency was inconclusive: 39.8 µM [inhibitor, single point].
With `CCCCC(=O)OC1=C(C(=O)c2ccccc2)N(C)S(=O)(=O)c2ccccc21` the Potency was “inactive”.
For `Cn1cnnc1Sc1ccc(/C=C(\CC(=O)O)c2nc3ccccc3s2)cc1[N+](=O)[O-]`, the Potency was “inactive”.
With `COC(=O)CN1C(=S)N(c2ccc(OC)cc2)C(=O)/C1=C/c1ccc(N2CCOCC2)cc1` the Potency was “inactive”.
With `NC(=O)CSc1ncnc2c1cnn2Cc1ccccc1` the Potency was inconclusive: 5.01 µM [inhibitor, partial curve].
